# Measurements reported in PMC5979965, “Structure-based discovery of mPGES-1 inhibitors suitable for preclinical testing in wild-type mice as a new generation of anti-inflammatory drugs” (Scientific Reports, 2018).
# Test system: COX-1/2
# Assay: Activity assay of COX-1/2 (mixture of equal amounts of COX-1 and COX-2, Cayman COX inhibitor screening kit)
# Details: compound at 100 µM, equal amounts of COX-1 and COX-2 in terms of enzyme activities
row,SMILES,COX-1/2 Inhibition (%) at 100 µM
1,Cc1cc(C=C2C(=O)NC(=O)NC2=O)ccc1OCCCCC1CCCCC1,did not significantly inhibit and 9.1 ± 6.6%
2,O=C1NC(=O)C(=Cc2ccc(OCCCCC3CCCCC3)c(O)c2)C(=O)N1,greater than 50% and 68 ± 3.4%
3,O=C1NC(=O)C(=Cc2ccc(OCCCCC3CCCCC3)c(Br)c2)C(=O)N1,greater than 50% and 63 ± 0.8%
4,COc1cc(C=C2C(=O)NC(=O)NC2=O)ccc1OCCCCC1CCCCC1,less than 50% and 28 ± 3.6%
5,O=C1NC(=O)C(=Cc2ccc(OCCCCC3CCCCC3)c([N+](=O)[O-])c2)C(=O)N1,less than 50% and 43 ± 3.2%

# The source holds more than one record for some entries. This list holds those alone. There may be further records. Values that stand side by side differ, and nothing given here explains why; dose, time, organism, isomer or construct need not be as stated for each record.
